## Screening data

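Malaria parasite (P. falciparum) lines kept in red blood cells; parasite DNA is measured by SYBR Green fluorescence after lysis, 72 h after compound addition.
Each compound was titrated across a series from about 0.000037 to 29 µM.
The number is the fitted AC50, the concentration giving a half-maximal change in signal; a lower value means higher potency, whether the curve shows a decrease or an increase.
Calls follow the curve class and fit quality: every row here is inconclusive, covering signal-raising curves and weak, poorly fitted, partial or highest-dose-only inhibition curves.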

Values are in nM.
All entries here are filed as inconclusive.
Only part of the assay is shown, chiefly results filed as inconclusive.
A potency from a partial, single-point or poor curve is only a rough figure.

SMILES	tested on / at	Potency (nM)	remark
CNCCCC1c2ccccc2C=Cc2ccccc21	ICS	3548	inhibitor, single point
CNCCCC1c2ccccc2C=Cc2ccccc21	P94_40	1995	inhibitor, partial curve
CNCCCC1c2ccccc2C=Cc2ccccc21	CP265	4467	inhibitor, partial curve
CNCCCC1c2ccccc2C=Cc2ccccc21	CP194	2558	inhibitor, partial curve
CNCCCC1c2ccccc2C=Cc2ccccc21	TAB165	1259	inhibitor, partial curve
CNCCCC1c2ccccc2C=Cc2ccccc21	PC15	3548	inhibitor, partial curve
CNCCCC1c2ccccc2C=Cc2ccccc21	CP325	2869	inhibitor, partial curve, poor fit
CNCCCC1c2ccccc2C=Cc2ccccc21	DIV30	3220	inhibitor, partial curve
CNCCCC1c2ccccc2C=Cc2ccccc21	P93_24	1412	inhibitor, partial curve
CCCCCCCCC(=O)NCc1ccc(O)c(OC)c1	CP266	15101	inhibitor, single point
CC(C)(C)[C@]1(O)CCN2CC3c4ccccc4CCc4cccc(c43)[C@@H]2C1 (stereo partly drawn)	CP201	16944	inhibitor, partial curve, poor fit
CC(C)(C)[C@]1(O)CCN2CC3c4ccccc4CCc4cccc(c43)[C@@H]2C1 (stereo partly drawn)	PC15	7080	inhibitor, partial curve, poor fit
CC(C)(C)[C@]1(O)CCN2CC3c4ccccc4CCc4cccc(c43)[C@@H]2C1 (stereo partly drawn)	CP269	16944	inhibitor, single point
CC(C)(C)[C@]1(O)CCN2CC3c4ccccc4CCc4cccc(c43)[C@@H]2C1 (stereo partly drawn)	N140	12589	inhibitor, single point
CC(C)(C)[C@]1(O)CCN2CC3c4ccccc4CCc4cccc(c43)[C@@H]2C1 (stereo partly drawn)	TAB109	11220	inhibitor, single point
CC(C)(C)[C@]1(O)CCN2CC3c4ccccc4CCc4cccc(c43)[C@@H]2C1 (stereo partly drawn)	CP260	11220	inhibitor, single point
CC(C)(C)[C@]1(O)CCN2CC3c4ccccc4CCc4cccc(c43)[C@@H]2C1 (stereo partly drawn)	FAB9	14125	inhibitor, single point
CC(C)(C)[C@]1(O)CCN2CC3c4ccccc4CCc4cccc(c43)[C@@H]2C1 (stereo partly drawn)	ATS189	10000	inhibitor, partial curve
CC(C)(C)[C@]1(O)CCN2CC3c4ccccc4CCc4cccc(c43)[C@@H]2C1 (stereo partly drawn)	AS120	11220	inhibitor, single point
CC(C)(C)[C@]1(O)CCN2CC3c4ccccc4CCc4cccc(c43)[C@@H]2C1 (stereo partly drawn)	CP266	674.6	inhibitor, full curve, poor fit
CC(C)(C)[C@]1(O)CCN2CC3c4ccccc4CCc4cccc(c43)[C@@H]2C1 (stereo partly drawn)	P94_40	10000	inhibitor, single point
CC(C)(C)[C@]1(O)CCN2CC3c4ccccc4CCc4cccc(c43)[C@@H]2C1 (stereo partly drawn)	DIV30	11995	inhibitor, single point
CC(C)(C)[C@]1(O)CCN2CC3c4ccccc4CCc4cccc(c43)[C@@H]2C1 (stereo partly drawn)	3D7	17782	inhibitor, single point
CC(C)(C)[C@]1(O)CCN2CC3c4ccccc4CCc4cccc(c43)[C@@H]2C1 (stereo partly drawn)	CP194	15101	inhibitor, single point
CC(C)(C)[C@]1(O)CCN2CC3c4ccccc4CCc4cccc(c43)[C@@H]2C1 (stereo partly drawn)	CP268	13459	inhibitor, partial curve, poor fit
CC(C)(C)[C@]1(O)CCN2CC3c4ccccc4CCc4cccc(c43)[C@@H]2C1 (stereo partly drawn)	CP247	11220	inhibitor, partial curve
CC(C)(C)[C@]1(O)CCN2CC3c4ccccc4CCc4cccc(c43)[C@@H]2C1 (stereo partly drawn)	CP238	11220	inhibitor, single point
CC(C)(C)[C@]1(O)CCN2CC3c4ccccc4CCc4cccc(c43)[C@@H]2C1 (stereo partly drawn)	CP325	9528	inhibitor, single point
CC(C)(C)[C@]1(O)CCN2CC3c4ccccc4CCc4cccc(c43)[C@@H]2C1 (stereo partly drawn)	PC26	16944	inhibitor, single point
CC(C)(C)[C@]1(O)CCN2CC3c4ccccc4CCc4cccc(c43)[C@@H]2C1 (stereo partly drawn)	CP250	14125	inhibitor, single point
CC(C)(C)[C@]1(O)CCN2CC3c4ccccc4CCc4cccc(c43)[C@@H]2C1 (stereo partly drawn)	PAD	17782	inhibitor, single point
CC(C)(C)[C@]1(O)CCN2CC3c4ccccc4CCc4cccc(c43)[C@@H]2C1 (stereo partly drawn)	HB3	12589	inhibitor, partial curve
CC(C)(C)[C@]1(O)CCN2CC3c4ccccc4CCc4cccc(c43)[C@@H]2C1 (stereo partly drawn)	CP297	13459	inhibitor, partial curve
CC(C)(C)[C@]1(O)CCN2CC3c4ccccc4CCc4cccc(c43)[C@@H]2C1 (stereo partly drawn)	CP185	10000	inhibitor, single point
CC(C)(C)[C@]1(O)CCN2CC3c4ccccc4CCc4cccc(c43)[C@@H]2C1 (stereo partly drawn)	CP192	19011	inhibitor, single point
CC(C)(C)[C@]1(O)CCN2CC3c4ccccc4CCc4cccc(c43)[C@@H]2C1 (stereo partly drawn)	CP211	6746	inhibitor, single point
CC(C)(C)[C@]1(O)CCN2CC3c4ccccc4CCc4cccc(c43)[C@@H]2C1 (stereo partly drawn)	TAB113	10000	inhibitor, single point
CC(C)(C)[C@]1(O)CCN2CC3c4ccccc4CCc4cccc(c43)[C@@H]2C1 (stereo partly drawn)	CP291	15101	inhibitor, partial curve
CC(C)(C)[C@]1(O)CCN2CC3c4ccccc4CCc4cccc(c43)[C@@H]2C1 (stereo partly drawn)	DFO2036	15848	inhibitor, single point
CC(C)(C)[C@]1(O)CCN2CC3c4ccccc4CCc4cccc(c43)[C@@H]2C1 (stereo partly drawn)	CP203	10690	inhibitor, partial curve, poor fit
CC(C)(C)[C@]1(O)CCN2CC3c4ccccc4CCc4cccc(c43)[C@@H]2C1 (stereo partly drawn)	CP262	19011	inhibitor, single point
CC(C)(C)[C@]1(O)CCN2CC3c4ccccc4CCc4cccc(c43)[C@@H]2C1 (stereo partly drawn)	CP256	11220	inhibitor, single point
CC(C)(C)[C@]1(O)CCN2CC3c4ccccc4CCc4cccc(c43)[C@@H]2C1 (stereo partly drawn)	CP265	17782	inhibitor, single point
NC(N)=NC(=O)c1nc(Cl)c(N)nc1N	CP305	15101	inhibitor, single point
NC(N)=NC(=O)c1nc(Cl)c(N)nc1N	DFO2036	12589	inhibitor, single point
NC(N)=NC(=O)c1nc(Cl)c(N)nc1N	ATS95	12589	inhibitor, single point
NC(N)=NC(=O)c1nc(Cl)c(N)nc1N	CP268	16944	inhibitor, single point
NC(N)=NC(=O)c1nc(Cl)c(N)nc1N	CP217	11220	inhibitor, single point
NC(N)=NC(=O)c1nc(Cl)c(N)nc1N	AS120	17782	inhibitor, single point
NC(N)=NC(=O)c1nc(Cl)c(N)nc1N	C2A	15848	inhibitor, single point
NC(N)=NC(=O)c1nc(Cl)c(N)nc1N	CP215	13459	inhibitor, single point
NC(N)=NC(=O)c1nc(Cl)c(N)nc1N	CP247	17782	inhibitor, single point
NC(N)=NC(=O)c1nc(Cl)c(N)nc1N	TAB113	10000	inhibitor, single point

Some entries from above, unchanged:

CC(C)(C)[C@]1(O)CCN2CC3c4ccccc4CCc4cccc(c43)[C@@H]2C1 (stereo partly drawn) [ATS189] gave Potency 10000 nM (inhibitor, partial curve).
CC(C)(C)[C@]1(O)CCN2CC3c4ccccc4CCc4cccc(c43)[C@@H]2C1 (stereo partly drawn) [CP266] gave Potency 674.6 nM (inhibitor, full curve, poor fit).
CC(C)(C)[C@]1(O)CCN2CC3c4ccccc4CCc4cccc(c43)[C@@H]2C1 (stereo partly drawn) [CP250] gave Potency 14125 nM (inhibitor, single point).

Source: PubChem BioAssay AID504749 (NCATS, 2011).